# Small-molecule microarray binding calls

Source: the ROBIN nucleic acid binder screens (doi:10.1002/anie.202211358).

Targets (5′ to 3′):
SAM-II: SAM-II riboswitch RNA pseudoknot, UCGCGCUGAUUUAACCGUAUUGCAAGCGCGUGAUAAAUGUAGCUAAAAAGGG. About 200 hits among about 21,000 compounds.
TPP: TPP riboswitch RNA three-way junction, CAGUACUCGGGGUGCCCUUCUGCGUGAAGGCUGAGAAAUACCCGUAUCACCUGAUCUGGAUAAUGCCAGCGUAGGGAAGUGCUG. About 160 hits among about 24,000 compounds.
PreQ1: PreQ1 riboswitch RNA pseudoknot, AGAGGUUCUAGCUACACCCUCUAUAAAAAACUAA. From B. subtilis. About 170 hits among about 24,000 compounds.

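Each compound is printed as two spots on a slide made to bind it covalently, so it has no test concentration; the read-out is fluorescence of the bound, labelled oligonucleotide. The data file lists only calls. An earlier report of the laboratory on the PreQ1, TPP and SAM-II riboswitches (doi:10.1038/s41467-019-09493-3) used 1 µM RNA for 2 h and required a mean Z-score above 3 (spot signal-to-noise against the whole library), a score well above that on a control array, and duplicate spots agreeing (coefficient of variation under 100); it then also set aside compounds that hit other targets, which this list keeps. The cut-offs behind this list may differ. The calls come from the array alone, and fixing a compound to the slide can hide its binding.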
“yes” means called a hit, “no” means screened and not called a hit.
This is an unselected part of the compounds tested.
A dash means that no call is listed here.

SMILES,SAM-II,TPP,PreQ1
Nc1nc(CCNC(=O)C2CC(=O)N(Cc3cccnc3)C2)cs1 (configuration not stated),no,no,no
CCOc1ccc(NC(=O)C2CCCN(C)C2)cc1 (configuration not stated),no,no,no
Cc1ccc(NC(=O)c2nnn(Cc3ccc(F)cc3)c2N)c(Cl)c1,no,no,no
CN(C)CCNc1cc(C(C)(C)C)nc2c(-c3ccccc3Cl)cnn12,-,no,no
Cc1[nH]c2c(C(C)C)cccc2c1CCN,no,no,no
Cc1ccc(C(CCO)NC2CCN(c3ncccn3)CC2)cc1 (configuration not stated),no,no,no
COc1ccc(CNc2ccc3c(c2)ncn3C(C)(C)C)cc1OC,no,no,no
O=C1CC(Nc2ccc(F)cc2)C(=O)N1c1ccc(N2CCOCC2)cc1 (configuration not stated),no,no,no
COc1ccc2[nH]c(CNC3CCSC3)nc2c1 (configuration not stated),no,no,no
COC(=O)c1ccc(C=C2C(C)=C(C#N)c3nc(N)c(C#N)c(C)c32)cc1,no,no,no
Cc1ccc(OCC(O)CN2C(=O)NC(C)(C)C2=O)cc1C (configuration not stated),no,no,no
CCCCS(=O)(=O)CCCCCO,no,no,no
O=C(CO)NCCC1CN(Cc2ccc3c(c2)OCCO3)CCO1 (configuration not stated),no,no,no
NCCSC1CC(=O)N(c2cccc(Cl)c2)C1=O (configuration not stated),no,no,no
CCOC(=O)c1nc(Nc2ccc(C(=O)OCC(C)C)cc2)c2ccccc2n1,no,no,no
COc1ccc(Cl)cc1NC(=O)c1sc2nc3c(cc2c1N)CN(Cc1ccccc1)CC3,no,no,no
COc1ccc(Nc2c(-c3ccccc3)c(=O)c2=O)c(OC)c1,-,no,no
CCOC(=O)c1c(NC(C)=O)sc2c(OCC(O)CN(CC)CC)c(Br)ccc12 (configuration not stated),no,yes,no
O=C1CC(NC2CCCC2)C(=O)N1c1cccc(C(F)(F)F)c1 (configuration not stated),no,no,no
CN(Cc1nccn1Cc1ccccc1)C(=O)C1CC2(CCNCC2)CN1 (configuration not stated),no,no,no
O=C(NCCCN1CCCC1=O)c1ccccc1C1CCNC1 (configuration not stated),no,no,no
COC[C@H]1OC(=O)c2coc3c2[C@@]1(C)C1=C(C3=O)[C@H]2CCC(=O)[C@@]2(C)C[C@H]1OC(C)=O,no,no,no
Cc1c(C#N)c(N)n(-c2ccc(C#N)cc2)c1C,no,no,no
O=C1CC(Nc2ccc(F)cc2)C(=O)N1c1ccccc1C(F)(F)F (configuration not stated),no,no,no
OC1CCCN(C2CCN(Cc3ncc[nH]3)CC2)C1 (configuration not stated),no,no,no
O=S(=O)(c1ccsc1CO)N1CCOCC1,no,no,no
OC(c1ccccc1)c1nc2ccccc2[nH]1 (configuration not stated),no,no,no
O=C(O)c1cccnc1,no,no,no
O=C(OCCNc1nc(-c2ccccc2)nc2ccccc12)c1ccncc1,no,no,no
CNC(=O)[C@@H]1C[C@@H](N)CN1C(=O)Cn1cc(C(F)(F)F)ccc1=O,no,no,no
CCCCSc1nc2ccccc2n1CCO,no,no,no
O=C(CCc1cc(Cl)no1)N1C[C@@H](CN2CCOCC2)[C@@H](CO)C1,no,no,no
CCCCNc1nc(Oc2ccc(OCCC)nn2)nc(N2CCOCC2)n1,-,no,no
OC1CN(Cc2ccco2)CCN(c2nnnn2-c2ccccc2)C1 (configuration not stated),no,no,no
CCOc1ccc(-c2noc(-c3nnn(-c4cccc(C)c4C)c3N)n2)cc1,-,no,no
Cc1ccc(C2C(C#N)=C(N)Oc3c2oc(CO)cc3=O)o1 (configuration not stated),no,no,no
CC(C)(C)NC(CNS(=O)(=O)c1ccccc1)c1ccccc1 (configuration not stated),-,no,no
CCc1cc(Nc2ccc(Cl)cc2)n2ncnc2n1,no,no,no
Cc1nnc(SCCCNC(=O)[C@@H](N)Cc2cscn2)s1,no,no,no
CC(Nc1oc(-c2ccc(S(=O)(=O)N3CCCC3)cc2)nc1C#N)c1ccccc1 (configuration not stated),-,no,no
Cc1cc2ncc(-c3ccc(Cl)cc3)c(N)n2n1,no,no,no